Results taken from PMC8826447.
Results are given in words; binding and its absence hold for the method and conditions named.

By UniProt entry, the sequences of proteins in these tests, tags left out. Residues count along the entry.
UniProt Q9Y294, residues 1-155: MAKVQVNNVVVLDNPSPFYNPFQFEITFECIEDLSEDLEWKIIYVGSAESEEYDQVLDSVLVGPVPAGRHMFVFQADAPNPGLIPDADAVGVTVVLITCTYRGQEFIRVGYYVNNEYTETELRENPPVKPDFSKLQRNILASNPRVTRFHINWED

Biological target: ASF1a-NT domain (ASF1a residues 1–155) (human) (UniProt Q9Y294)
Assay: fluorescence polarisation; competition: 63 nM ASF1a 1–155 with 5 nM FITC tracer peptide and rising unlabeled peptide (15.6 nM to 256 μM for the TLK2 peptide); 50 mM Tris pH 8.0, 100 mM NaCl, 10 mM MgCl2, 1.2 mM DTT, 0.012% Brij-35, 0.2 mg/ml BSA; 295 K; both purified

In the case of EELHSLDPRRQELAEAAATGV [TLK2 L16A/R19A/F20A triple mutant peptide], the binding is reported as “no binding”.
